Data published in patent US20130108641A1.
Results are given in words; binding and its absence hold for the method and conditions named. Binding calls can cover weak binding; strength is not graded here.

Target: cynomolgus monkey GITR on PBMCs (cynomolgus monkey)
Experiment: FACS, Alexa488-labelled antibody on PHA-stimulated cynomolgus monkey PBMCs

binding: binds
B1: anti-GITR antibody clone 1718 (antibody, V domains shown)
VH: QVQVQQSGPELVKPGASVRISCKASDYTFTNYYIHWVRQRPGQGLEWLGWIYPGKGYTNYNEKFKGKATLTADKSSSTAYMQFSSLTSEDSAVYFCASGYGNYYFPYWGQGTLVTVSA
VL: IQMTQSSSYLSVSLGGRVTITCKASDHIKNWLAWYQQKPGNVPRLLMSAATSLETGFPSRFSGSGSGKDFTLTITSLQTEDVATYYCQQYWSTPWTFGGGTKLEIK
